PubChem BioAssay AID2685 (National Center for Advancing Translational Sciences (NCATS), 2010)
The other results are listed elsewhere or left out. Shown are side measurements of this screen, not its main read-out; they come without a call. Compounds called inactive in the main read-out are mostly missing here. Potencies come from curve fits of mixed quality, noted in brackets.

Test: qHTS Assay for Lipid Storage Modulators in Drosophila S3 Cells;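 on cell number change: cells counted by Cell Tracker Red CMTPX staining in the red channel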
Settings: BODIPY lipid droplet fluorescence, 18-24 h; for cell number change: measured here: cell count max response, cells fed with added oleic acid
Summary of the method: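 Drosophila S3 cells loaded with oleic acid (400 uM, as added) and compounds at several concentrations; lipid droplets imaged by 488-nm laser-scanning cytometry, 500–530 nm intensity and object ratio to cell channel. Percent activity normalized to 20 uM Triacsin C.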

[1] = measured here: lipid fluorescence (Fed channel) AC50, cells fed with added oleic acid
[2] = measured here: cell number channel AC50, cells fed with added oleic acid

SMILES	cell number change [%]	AC50 [1]	AC50 [2]
COc1cc(OC)cc(C(=O)Nc2ccc(S(=O)(=O)N(C)C)cc2)c1	22.2	29.1 µM [rising, single point]	
O=C(Nc1ccc(OC(F)(F)F)cc1)c1cccc(-n2cnnn2)c1			2.91 µM [rising, single point]
NC(=O)COc1ccc(NS(=O)(=O)Cc2ccccc2)cc1	-19.7	6.51 µM [rising, single point]	
CCCc1nnc(SCC(=O)Nc2ccccc2Cl)n1CC1CCCO1 (stereo not given)	5.88	0.411 µM [rising, full curve]	
Cc1ccc(NC(=O)[C@H](NC(=O)[C@@H]2Cc3ccccc3CN2)c2ccccc2)cc1	-4.18	3.66 µM [rising, full curve]	
Cc1ccc(SCC(=O)Nc2cccc(NC(=O)c3ccco3)c2)cc1	-7.96	16.4 µM [rising, single point]	
CCOC(=O)N1CCC(NC(=O)c2ccc3snnc3c2)CC1			3.26 µM [rising, partial curve, poor fit]
NC(=O)CCCn1c(C(=O)c2cc(Cl)c(N)c(Cl)c2)c2ccc([N+](=O)[O-])cc2[n+]1[O-]		29.1 µM [rising, single point]	
CCCOC(=O)c1c(NC(=O)CSc2nc(-c3ccco3)cc(C(F)(F)F)n2)sc(C(=O)OC)c1C	49	0.13 µM [rising, full curve, poor fit]	0.092 µM [rising, full curve]
CC(C)(C)NC(=O)Cn1nnc(-c2ccc(OCc3c(F)cccc3Cl)cc2)n1			0.731 µM [falling, partial curve, poor fit]
O=C(c1ccc(Br)c([N+](=O)[O-])c1)N1CCN(Cc2ccccc2)CC1	-20.8	29.1 µM [falling, single point]	
CN1c2ccccc2C(O)=C(C(=S)Nc2ccc(Cl)cc2)S1(=O)=O	-46.6	29.1 µM [falling, single point]	23.1 µM [falling, single point]
COc1ccc(-c2nnc(SCC(=O)Nc3cc(C)on3)n2C)cc1OC			3.26 µM [rising, partial curve, poor fit]
O=C(Cn1[nH]c(=O)c2ccccc2c1=O)OCC(=O)N1CCc2ccccc2C1	8.3		
O=c1c(CN2CCN(Cc3ccccc3F)C(CCO)C2)coc2ccccc12 (stereo not given)	3.37	0.164 µM [rising, full curve, poor fit]	
Cc1ccccc1S(=O)(=O)c1cc2ccccc2nc1N		0.794 µM [rising, single point]	
CCOc1ccc(CCNC(=O)c2cccc3c2C(=O)N(CCOC)C3)cc1OCC	39	29.1 µM [rising, single point]	
CSc1ccc(NC(=O)N2CCC(C(=O)c3ccc(F)cc3)CC2)cc1	17.5	1.16 µM [falling, single point]	
COc1ccc(/C=C2\Oc3cc(OCC(=O)N4CCC(C(=O)O)CC4)ccc3C2=O)c(OC)c1	-8.74		

SMILES	cell number change [%]	AC50 [1]	AC50 [2]
CCN(C(=O)CCN1C(=O)S/C(=C\c2ccccc2)C1=O)C1CCS(=O)(=O)C1 (stereo not given)	4.58	1.84 µM [rising, partial curve]	
COc1ccc(NC(=O)CCCC(=O)NCCc2ccc(OC)c(OC)c2)cc1	-2.1	16.4 µM [falling, single point]	
COc1ccc(-c2nsc3c(N4CCCC4)ncnc23)cc1	-1.35	0.82 µM [rising, full curve]	
Cc1ccc2c(c1)N(CC(=O)N1CCCCC1C)C(=O)CO2 (stereo not given)	-21.8	0.116 µM [rising, single point]	
Cc1ccc(NC(=S)NNC(=O)c2nnn(-c3ccccc3)c2C)cc1	13.8	0.58 µM [rising, single point]	
CCn1c(NC(=O)c2cccs2)c(-c2cccs2)c(=O)c2ccccc21	32.4		13 µM [rising, partial curve, poor fit]
CS(=O)(=O)N(CC(=O)Nc1ccc(S(=O)(=O)N2CCCC2)cc1)c1ccccc1	-34.4	0.103 µM [falling, full curve, poor fit]	29.1 µM [falling, single point]
COC(=O)c1ccc(CO/N=C/c2ccc(OC)cc2OC)cc1	7.59	8.2 µM [rising, partial curve, poor fit]	
COCCOC(=O)C1=C(C)NC(=O)NC1c1c(F)cccc1Cl (stereo not given)	-16.5	0.366 µM [rising, full curve, poor fit]	
CN1CCN(CC(=O)NN(Cc2ccccc2)c2ccccc2)CC1	-16.2	4.11 µM [falling, full curve]	
CCOc1ccc(C(=O)NCC(=O)OCc2c(F)cccc2Cl)cc1	-1.18	0.366 µM [rising, full curve]	
CSCC[C@H](NC(=O)C1CCN(S(=O)(=O)c2ccc(C)cc2)CC1)C(=O)NCC1CCCO1 (stereo not given in full)	37.1	0.146 µM [falling, full curve, poor fit]	0.0058 µM [rising, full curve, poor fit]
COc1ccc(-n2c(COc3ccc4c(c3)OCO4)nnc2SCC(=O)O)cc1	-34.8		16.4 µM [falling, single point]
COc1cc2c(cc1NC(=O)COC(=O)[C@@H](NS(=O)(=O)c1cccc(Cl)c1)C(C)C)oc1ccccc12	-4.45	32.6 µM [falling, single point]	
Cc1ccc(C2c3[nH]c4ccccc4c3C[C@H]3C(=O)N(c4ccccc4C(=O)N4CCC[C@@H]4C(=O)O)C(=O)N23)cc1 (stereo not given in full)	10.6		
CCOC(=O)c1c(N)sc2c(OC)c(Br)ccc12	-70.9	18.4 µM [falling, single point]	16.4 µM [falling, partial curve]
CN(C)C(=O)CSCc1c(Cl)cccc1Cl	46		23.1 µM [rising, single point]
CCN1CCN(C(=O)CN(CCc2ccccc2)S(C)(=O)=O)CC1	-21	20.6 µM [falling, partial curve, poor fit]	
CCOc1ccc(CCNC(=O)c2[nH]c(C)c(C(C)=O)c2CC)cc1OCC	33.2		11.6 µM [rising, partial curve]

Random excerpt: 2 entries already listed, in no set order.
SMILES	cell number change [%]	AC50 [1]	AC50 [2]
COC(=O)c1ccc(CO/N=C/c2ccc(OC)cc2OC)cc1	7.59	8.2 µM [rising, partial curve, poor fit]	
CCn1c(NC(=O)c2cccs2)c(-c2cccs2)c(=O)c2ccccc21	32.4		13 µM [rising, partial curve, poor fit]

Continuation.

SMILES	cell number change [%]	AC50 [1]	AC50 [2]
Cc1ccc(C(=O)N/C(=C\c2cn(C)c3ccccc23)C(=O)NCCCn2ccnc2)cc1	4.48	0.58 µM [rising, single point]	
CCOC(=O)[C@H]1[C@H]2COc3ccc(Br)cc3[C@@H]2N2C(=O)c3cc(F)c(F)cc3NC(=O)[C@@]12C	-32.8		20.6 µM [falling, single point]
Cc1cccn2c(=O)c(C=O)c(N3CCC4(CC3)OCCO4)nc12	31.4		
CN(C)Cc1c(O)c(Cl)cc2c3c(c(=O)oc12)CCCC3	16.6	1.46 µM [falling, partial curve]	
CCn1c(SCC(=O)Nc2ccc(Br)cc2)nc2sc3c(c2c1=O)CCN(C)C3	1.19	0.146 µM [falling, partial curve, poor fit]	
NS(=O)(=O)c1ccc(CCNC(=O)COC(=O)Cc2ccc([N+](=O)[O-])cc2)cc1	18.1		2.91 µM [falling, single point]
O=C(C1=C(O)C(=O)N(CCN2CCOCC2)C1c1ccco1)c1cc2ccccc2o1 (stereo not given)	1.13	29.1 µM [rising, single point]	
Cc1cc(C(=O)Nc2ccon2)c(C)o1	13.7	0.116 µM [rising, full curve, poor fit]	6.51 µM [rising, single point]
O=C(COc1cccc(NC(=O)c2cccc([N+](=O)[O-])c2)c1)c1ccc(F)cc1	-15.2	0.326 µM [rising, single point]	
CC(C)OCCCN1C(=O)c2ccccc2C1C(=O)NC1CCCCC1 (stereo not given)	-15.2	0.651 µM [rising, full curve]	
Cc1cccc(NC(=O)C2(c3ccccc3)CC2(Cl)Cl)c1 (stereo not given)	7.7	25.9 µM [rising, single point]	
COc1ccc(OC)c(C(c2c(O)nc(SC)[nH]c2=O)c2c(O)nc(SC)[nH]c2=O)c1	4.23	0.13 µM [rising, full curve, poor fit]	
Cn1c(C(=O)N2CCCC(C(=O)NCc3ccc4c(c3)OCO4)C2)cc2sccc21 (stereo not given)	-36.6	20.6 µM [falling, single point]	29.1 µM [falling, single point]
Cc1ccc2nc(NC(=O)CN(C)S(=O)(=O)c3ccc(Br)s3)sc2c1	15.1		3.66 µM [rising, single point]
CSc1ncccc1C(=O)NC1CC(C)(C)Cc2c1cnn2-c1ccccc1C (stereo not given)	2.05	0.184 µM [falling, full curve]	6.51 µM [falling, single point]
O=C(/C=C/c1cccnc1)c1ccc(NC(=O)c2cccc(Br)c2)cc1		4.61 µM [falling, single point]	
Cc1ccc(-c2[nH]c(-c3ccc(Cl)cc3)nc2SCC(=O)NCC2CCCO2)cc1 (stereo not given)	-16.7		
O=C(O)c1ccccc1C(=O)OCc1c(-c2ccccc2)ncc2ccccc12	-2.07	0.146 µM [falling, single point]	0.164 µM [falling, full curve]
C/C(Cl)=C\Cn1c(=O)c2c(nc3n2CCS3)n(C)c1=O	-19.5		

Copied from the list:
`CCOc1ccc(CCNC(=O)c2cccc3c2C(=O)N(CCOC)C3)cc1OCC` | AC50 [1]: 29.1 µM [rising, single point]
`O=C(/C=C/c1cccnc1)c1ccc(NC(=O)c2cccc(Br)c2)cc1` | AC50 [1]: 4.61 µM [falling, single point]
`NC(=O)CCCn1c(C(=O)c2cc(Cl)c(N)c(Cl)c2)c2ccc([N+](=O)[O-])cc2[n+]1[O-]` | AC50 [1]: 29.1 µM [rising, single point]
